Binding data for six molecules are collected here from patent publication US20040132641A1 (University of Pennsylvania, published 2004).

By UniProt entry, the sequences of proteins in these tests, tags left out. Residues count along the entry.
UniProt P48023, residues 103-281: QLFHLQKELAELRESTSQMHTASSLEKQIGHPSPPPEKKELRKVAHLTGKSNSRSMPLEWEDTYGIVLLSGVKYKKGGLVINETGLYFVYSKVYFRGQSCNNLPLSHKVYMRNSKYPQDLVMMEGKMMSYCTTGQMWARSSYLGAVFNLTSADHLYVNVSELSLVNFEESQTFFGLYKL

No constants are given. Whether binding was seen depends on the method and setting. Some entries that bind do so weakly or less than the wild type.

The first assay addresses Flag-tagged soluble human Fas ligand (FasL-Flag) (human) (UniProt P48023). Put plainly: competition ELISA, dose response: FasL-Flag (100 ng/ml) preincubated with peptide, added to immobilised Fas-Fc; blocked partner Fas-Fc. For orientation: An ELISA detects its analyte on a solid surface through an enzyme-linked reagent.
YCDEGHLCY (Cys2 and Cys8 joined by an intramolecular disulfide (cyclised)) [Kp 7-2]: the binding entry was “binds”.

A further assay has the same target. Put plainly: competition ELISA: FasL-Flag (100 ng/ml) preincubated with peptide, added to immobilised Fas-Fc, anti-Flag-HRP detection; blocked partner Fas-Fc.
Turning to YCDEGHLCY (Cys2 and Cys8 joined by an intramolecular disulfide (cyclised)) [Kp 7-2], the binding result was “binds”.

On to YCQERKEYCY (Cys2 and Cys9 joined by an intramolecular disulfide (cyclised)) [Kp 4-3], for which the binding result is listed as “binds”.

With YCDEGYFCY (Cys2 and Cys8 joined by an intramolecular disulfide (cyclised)) [Kp 7-4], the binding entry is “binds”.

Take YCDEKFCY (Cys2 and Cys7 joined by an intramolecular disulfide (cyclised)) [Kp 7-9]: the binding result is on record as “binds”.

For the molecule YCQEKEYCY (Cys2 and Cys8 joined by an intramolecular disulfide (cyclised)) [Kp 4-2], the binding result is listed as “binds”.

In the case of YCDEGLCY (Cys2 and Cys7 joined by an intramolecular disulfide (cyclised)) [Kp 7-3], the binding entry is on record as “binds”.
